Experiment [1] addresses CD154 expressed on cells (CD154 expressing Jurkat cells; T cell CD154) (UniProt P29965). In words: binding to CD154 expressing Jurkat cells (legend calls it BIAcore binding assays), FIG. 3.
For experiment [2] the target is unchanged. In words: binding to CD40L (CD154) expressing Jurkat cells, readout % normalized mean MFI (panel title 'CD40L Jurkat Binding'; legend paragraph 14 calls it a BIAcore assay).

By UniProt entry, the sequences of proteins in these tests, tags left out.
UniProt P29965: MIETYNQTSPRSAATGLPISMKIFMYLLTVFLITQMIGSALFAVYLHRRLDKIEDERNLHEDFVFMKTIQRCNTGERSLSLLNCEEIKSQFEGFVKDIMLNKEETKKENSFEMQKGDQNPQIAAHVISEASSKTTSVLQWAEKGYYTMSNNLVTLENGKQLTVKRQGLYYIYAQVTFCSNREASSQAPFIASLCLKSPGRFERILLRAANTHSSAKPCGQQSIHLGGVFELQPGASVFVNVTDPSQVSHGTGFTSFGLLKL

These are yes or no findings as the source states them, for the method shown. Some results given as binding are weak or reduced against the parent protein; the word gives no strength.

B1: IDEC-131, humanized anti-human CD154 IgG1 antibody (antibody, V domains shown)
VH: EVQLQESGPGLVKPSETLSLTCTVSGDSITNGFWIWIRKPPGNKLEYMGYISYSGSTYYNPSLKSRISISRDTSKNQFSLKLSSVTAADTGVYYCACRSYGRTPYYFDFWGQGTTLTVSS
VL: DIVMTQSPSFLSASVGDRVTITCKASQNVITAVAWYQQKPGKSPKLLIYSASNRYTGVPDRFSGSGSGTDFTLTISSLQPEDFADYFCQQYNSYPYTFGGGTKLEIK
notes: Humanized human IgG1 derived from mouse antibody 24-31
On to B1, for which the binding result in experiment [1] and in experiment [2] was “binds” each time.

B2: INX021 (variant 21), humanized anti-human CD154 IgG1 antibody derived from IDEC-131 (antibody, V domains shown)
VH: EVQLQESGPGLVKPSETLSLTCTVSGDSITNGFWIWIRKPPGNKLEYMGYISYSGSTYYNPSLKSRISISRDTSKNQFSLKLSSVTAADTGVYYCAYRSYGRTPYYFDYWGQGTTLTVSS
VL: DIVMTQSPSFLSASVGDRVTITCKASSNLGHAVAWYQQKPGKSPKLLIYSASNRYTGVPDRFSGSGSGTDFTLTISSLQPEDFADYFCQQYDDYPYTFGGGTKLEIK
On to B2, for which, in experiment [2], the binding entry is on record as “binds”.
